Test results reported in article PMC7819943, “Rice protein-binding microarrays: a tool to detect cis-acting elements near promoter regions in rice”.
The other results are listed elsewhere or left out.

Target: T1, OsSMF1 (Oryza sativa, UniProt Q6ZLB0 1-436)
T1 sequence: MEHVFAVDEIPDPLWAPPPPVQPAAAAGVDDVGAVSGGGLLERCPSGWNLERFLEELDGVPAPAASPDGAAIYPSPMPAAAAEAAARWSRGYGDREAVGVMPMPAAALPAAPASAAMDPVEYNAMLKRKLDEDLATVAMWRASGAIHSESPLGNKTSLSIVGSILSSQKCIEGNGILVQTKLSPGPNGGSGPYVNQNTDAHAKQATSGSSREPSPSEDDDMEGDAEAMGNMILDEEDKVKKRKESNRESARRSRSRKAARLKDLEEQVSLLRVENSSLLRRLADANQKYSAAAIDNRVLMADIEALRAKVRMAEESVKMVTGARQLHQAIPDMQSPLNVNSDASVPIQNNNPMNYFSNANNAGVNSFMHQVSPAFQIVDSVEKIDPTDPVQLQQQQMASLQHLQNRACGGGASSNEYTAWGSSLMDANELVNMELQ
Assay: protein-binding microarray (RPBM); PBS, 2% BSA, 51.3 ng/ul salmon testes DNA, 50 uM zinc acetate, 200 nM TF, 25 C, 1 h; high values mean tight binding
Details: protein: recombinant; tags: N-terminal polyhistidine and DsRed monomer fusion (pET32a); chain copies: 2; label: CyDye5-dUTP incorporated in the synthesized complementary strand; 3' TTTTT single-stranded linker to array surface; dsDNA, one strand shown
Summary of the method: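 Transcription factors were each fused at the N-terminus to a polyhistidine tag plus DsRed and expressed in E. coli BL21-CodonPlus before Ni–NTA purification. Binding to a double-stranded custom Agilent array was carried out with 200 nM protein at 25 °C for 1 h in PBS, 2% BSA, salmon testes DNA and 50 µM zinc acetate. The binding signal is per-feature fluorescence intensity, in arbitrary units, on an Axon 4000B scanner.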

Compared with “ACAGATTCCGGCAGCCACCGCGCGCACGCGTGACAACGCCCGGAGTCACCTAGTGCAG”, “GTGATTTGTGTAGGTTCTTTGGAATTCTGACTCAAACCTACGGAGTCACCTAGTGCAG” is higher in binding signal: 3560 fluorescence intensity (a.u.) for the first, 3780 fluorescence intensity (a.u.) for the second.

First: TACTTGGTCTGGTGTACATCATTGGCACTAATACTCCCTTCGGAGTCACCTAGTGCAG
Second: ATAATCCGAATAAAGATATGGTCATCGTGGCCATTCACAGCGGAGTCACCTAGTGCAG
The binding signal of the first is higher: 3400 fluorescence intensity (a.u.) for the first, 3260 fluorescence intensity (a.u.) for the second.

First: CTATGGACACCACCTGCACAATGACCGGATTCTGCACCACCGGAGTCACCTAGTGCAG
Second: TCAAACGTCCACGACCGCTTTCCCCGCACGTAGGCCGTTGCGGAGTCACCTAGTGCAG
The binding signal of the first is higher: 4570 fluorescence intensity (a.u.) for the first, 3710 fluorescence intensity (a.u.) for the second.

Compared with “GGATTTGCACGAATCCTTACGGTGTGAGTCATACACGGTCCGGAGTCACCTAGTGCAG”, “TTCTTTGGTGGGTGCCACGTAGGAGAAACCCAGCAGGAGTCGGAGTCACCTAGTGCAG” is higher in binding signal: 7100 fluorescence intensity (a.u.) for the first, 12000 fluorescence intensity (a.u.) for the second.

Going from “AATTAATCACATGTTATTACCACCTCGTCTTACGTGAGACCGGAGTCACCTAGTGCAG” to “GGGGCAATGATCACAGGCTTCTGCATAGACGTGTTCCAAGCGGAGTCACCTAGTGCAG”, the binding signal falls from 4300 fluorescence intensity (a.u.) to 3800 fluorescence intensity (a.u.).

First: ACCTGTATTTGTCATTATTTAGTGGACTCTGCTTAGTTCTCGGAGTCACCTAGTGCAG
Second: CGCAGTTGCTTCTGCAAAAGAGATTGATGACAAGGATCACCGGAGTCACCTAGTGCAG
The binding signal of the first is lower: 3390 fluorescence intensity (a.u.) for the first, 3530 fluorescence intensity (a.u.) for the second.

First: CCGTGTAGTCAATTGAGGCCCAGAACACATGGAAGGCGAACGGAGTCACCTAGTGCAG
Second: GCAATGGATGTGTATGATGTAACGCAAGCAACATTCGTTCCGGAGTCACCTAGTGCAG
The binding signal of the first is higher: 4390 fluorescence intensity (a.u.) for the first, 4000 fluorescence intensity (a.u.) for the second.

Compared with “TACTTATCCAGATTCAAAAGATAAAATTTATTATATTATACGGAGTCACCTAGTGCAG”, “GCCGTCAAGATCATGCCGTGGCGGGTCTACGTCGTGCACACGGAGTCACCTAGTGCAG” is lower in binding signal: 12600 fluorescence intensity (a.u.) for the first, 4170 fluorescence intensity (a.u.) for the second.

First: AGGCACTACATGATATTGGCTATGACACTTGGCTGAACTTCGGAGTCACCTAGTGCAG
Second: CCGTGCGCATCCACCATGGCCTTCTTGTGCGCATCGATCACGGAGTCACCTAGTGCAG
The binding signal of the first is lower: 3320 fluorescence intensity (a.u.) for the first, 3390 fluorescence intensity (a.u.) for the second.

Going from “ACATTCATCATATATACACCTCCTCCTCCTTCTTCCTCTACGGAGTCACCTAGTGCAG” to “AGCGGGTGGGGTGTATAGGAGTACAGTTGTAGAGTCACCACGGAGTCACCTAGTGCAG”, the binding signal rises from 3970 fluorescence intensity (a.u.) to 4070 fluorescence intensity (a.u.).

Compared with “TTCTGAGCACTCATATGCAAGAAGTCTTGCTCGTTTTGCTCGGAGTCACCTAGTGCAG”, “CGTGAACTACTTGACTCTTCTCTTCATGCGTTTTCTTCAGCGGAGTCACCTAGTGCAG” is lower in binding signal: 12200 fluorescence intensity (a.u.) for the first, 3710 fluorescence intensity (a.u.) for the second.

First: TATATCTGATGCTCTCTTGCGTGTCCGTTTGCACTCGAGACGGAGTCACCTAGTGCAG
Second: ACCTCGTCAGGTTTCCGTTCCGCCTCCGCCTCTGCTGCTCCGGAGTCACCTAGTGCAG
The binding signal of the first is lower: 3540 fluorescence intensity (a.u.) for the first, 3930 fluorescence intensity (a.u.) for the second.

Going from “GGGGCGAAAGGGATGCTCCAGCGGTGGTGGCGCGTAGCCACGGAGTCACCTAGTGCAG” to “ACATGACTCTCTATTATTCCACACAAGATTGACTACATGTCGGAGTCACCTAGTGCAG”, the binding signal rises from 3370 fluorescence intensity (a.u.) to 3450 fluorescence intensity (a.u.).

Compared with “TATAAATAGCGGCCGTGTCCAGACACGCTAGTCTCACACCCGGAGTCACCTAGTGCAG”, “CTTTCTTTCTTTCTTTGTGCCCAACTCTGACACGACTCACCGGAGTCACCTAGTGCAG” is lower in binding signal: 14100 fluorescence intensity (a.u.) for the first, 5180 fluorescence intensity (a.u.) for the second.

Going from “ACACAACTTCCACAATTCCCATGCCAAATCATTACTAACGCGGAGTCACCTAGTGCAG” to “GCGCGCCGTCGTCGCTGCGTCACGGGGTGGTGACACGACGCGGAGTCACCTAGTGCAG”, the binding signal rises from 4130 fluorescence intensity (a.u.) to 7030 fluorescence intensity (a.u.).

Going from “CATTAGCTTCTCCAATGCTGAGGATCTGGATCCCTCTCCCCGGAGTCACCTAGTGCAG” to “TGTAGAGGAAATCGGCAAACACCGCGTGCGCTGGCACAATCGGAGTCACCTAGTGCAG”, the binding signal falls from 25800 fluorescence intensity (a.u.) to 6060 fluorescence intensity (a.u.).

Compared with “TCCTTCCTCTTCTTCGATCTCTCTCTCTCCCCTCAACCATCGGAGTCACCTAGTGCAG”, “AGCAGCCTACACTCGCCAACAAAAGTACTACCACCTCACGCGGAGTCACCTAGTGCAG” is higher in binding signal: 3710 fluorescence intensity (a.u.) for the first, 3750 fluorescence intensity (a.u.) for the second.

Compared with “CTCATAAGTTACCTGTGATCTGTGAAGCTTGAGCTGAAGCCGGAGTCACCTAGTGCAG”, “CCACCGGGAGCCAATCACGCGCGGCCGCGTGTACACACCCCGGAGTCACCTAGTGCAG” is higher in binding signal: 3310 fluorescence intensity (a.u.) for the first, 4520 fluorescence intensity (a.u.) for the second.

Going from “AAACAGGTAACAATTTATTCTATGTCGGCTTATTATAATCCGGAGTCACCTAGTGCAG” to “CAAGGAACGTGGGCTCATCTGACGTGCGCCGTTGCGTGCGCGGAGTCACCTAGTGCAG”, the binding signal falls from 30300 fluorescence intensity (a.u.) to 5970 fluorescence intensity (a.u.).

Going from “AGGCCTCCCCACCTTCTATATCACCGTCACCAGTTCACGGCGGAGTCACCTAGTGCAG” to “GCAATAGTGGGTGACGTCGTCGTGCCAATCTCATTGTTATCGGAGTCACCTAGTGCAG”, the binding signal falls from 4460 fluorescence intensity (a.u.) to 3170 fluorescence intensity (a.u.).

Compared with “GCGTTGCATTAAGAGAATGATTTGGTAAATTTTCTTTGACCGGAGTCACCTAGTGCAG”, “ACCACCCGAGACGCGACGTGGCGGCGGGCATGCAGCACCCCGGAGTCACCTAGTGCAG” is lower in binding signal: 15000 fluorescence intensity (a.u.) for the first, 5050 fluorescence intensity (a.u.) for the second.
